Results from publication PMC9410891.
These are yes or no findings as the source states them, for the method shown. Binding seen in cells or lysates may run through a third protein. Some results given as binding are weak or reduced against the parent protein; the word gives no strength.

By UniProt entry, the sequences of proteins in these tests, tags left out.
UniProt Q4JK59: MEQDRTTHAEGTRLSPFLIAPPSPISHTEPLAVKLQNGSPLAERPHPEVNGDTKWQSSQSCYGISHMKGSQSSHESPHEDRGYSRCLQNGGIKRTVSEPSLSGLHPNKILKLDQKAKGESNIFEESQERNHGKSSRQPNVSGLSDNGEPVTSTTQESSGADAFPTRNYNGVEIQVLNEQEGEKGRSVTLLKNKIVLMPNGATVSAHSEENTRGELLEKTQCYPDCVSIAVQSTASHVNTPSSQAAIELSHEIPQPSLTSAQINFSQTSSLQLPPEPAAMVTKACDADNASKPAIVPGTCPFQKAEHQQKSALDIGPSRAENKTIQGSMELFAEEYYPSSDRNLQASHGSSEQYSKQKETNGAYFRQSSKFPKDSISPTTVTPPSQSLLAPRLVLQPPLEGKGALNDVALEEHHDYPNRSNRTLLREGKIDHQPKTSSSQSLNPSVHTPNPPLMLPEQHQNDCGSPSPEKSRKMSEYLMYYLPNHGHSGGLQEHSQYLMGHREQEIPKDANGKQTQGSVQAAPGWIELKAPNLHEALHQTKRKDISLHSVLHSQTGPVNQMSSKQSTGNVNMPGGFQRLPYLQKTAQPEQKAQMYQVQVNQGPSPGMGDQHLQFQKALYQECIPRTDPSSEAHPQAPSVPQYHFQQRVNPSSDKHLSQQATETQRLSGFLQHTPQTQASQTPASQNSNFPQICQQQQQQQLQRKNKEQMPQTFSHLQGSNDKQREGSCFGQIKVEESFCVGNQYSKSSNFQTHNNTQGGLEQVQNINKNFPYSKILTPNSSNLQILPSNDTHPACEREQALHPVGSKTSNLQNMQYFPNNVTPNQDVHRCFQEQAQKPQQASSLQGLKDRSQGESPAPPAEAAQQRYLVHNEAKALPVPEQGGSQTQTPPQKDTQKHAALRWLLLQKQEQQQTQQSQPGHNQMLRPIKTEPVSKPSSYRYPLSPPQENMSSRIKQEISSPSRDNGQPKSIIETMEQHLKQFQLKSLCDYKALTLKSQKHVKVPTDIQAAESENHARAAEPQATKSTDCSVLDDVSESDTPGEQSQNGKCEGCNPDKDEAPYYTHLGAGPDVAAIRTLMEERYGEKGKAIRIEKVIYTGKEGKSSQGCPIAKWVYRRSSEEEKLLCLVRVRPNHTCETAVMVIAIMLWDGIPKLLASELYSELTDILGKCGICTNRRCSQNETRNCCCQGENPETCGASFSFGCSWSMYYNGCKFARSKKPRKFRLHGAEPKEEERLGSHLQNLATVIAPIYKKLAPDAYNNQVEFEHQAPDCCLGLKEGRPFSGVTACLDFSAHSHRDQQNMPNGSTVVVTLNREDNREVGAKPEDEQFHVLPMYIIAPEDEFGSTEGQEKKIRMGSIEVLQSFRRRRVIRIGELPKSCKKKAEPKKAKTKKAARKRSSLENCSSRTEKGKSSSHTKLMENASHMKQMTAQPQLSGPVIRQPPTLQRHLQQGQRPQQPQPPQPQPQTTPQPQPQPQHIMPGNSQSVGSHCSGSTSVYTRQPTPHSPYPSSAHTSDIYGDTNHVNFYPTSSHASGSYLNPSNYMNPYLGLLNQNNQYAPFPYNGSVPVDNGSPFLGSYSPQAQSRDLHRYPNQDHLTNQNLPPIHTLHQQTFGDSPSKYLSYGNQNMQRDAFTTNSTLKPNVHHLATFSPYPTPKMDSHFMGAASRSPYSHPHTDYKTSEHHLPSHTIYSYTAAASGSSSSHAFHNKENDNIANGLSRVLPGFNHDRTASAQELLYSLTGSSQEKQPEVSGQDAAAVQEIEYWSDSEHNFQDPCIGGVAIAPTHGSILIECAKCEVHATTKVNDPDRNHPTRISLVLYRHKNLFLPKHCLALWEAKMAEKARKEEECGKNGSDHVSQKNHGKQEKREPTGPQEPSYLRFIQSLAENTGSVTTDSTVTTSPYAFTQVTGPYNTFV
UniProt Q61188: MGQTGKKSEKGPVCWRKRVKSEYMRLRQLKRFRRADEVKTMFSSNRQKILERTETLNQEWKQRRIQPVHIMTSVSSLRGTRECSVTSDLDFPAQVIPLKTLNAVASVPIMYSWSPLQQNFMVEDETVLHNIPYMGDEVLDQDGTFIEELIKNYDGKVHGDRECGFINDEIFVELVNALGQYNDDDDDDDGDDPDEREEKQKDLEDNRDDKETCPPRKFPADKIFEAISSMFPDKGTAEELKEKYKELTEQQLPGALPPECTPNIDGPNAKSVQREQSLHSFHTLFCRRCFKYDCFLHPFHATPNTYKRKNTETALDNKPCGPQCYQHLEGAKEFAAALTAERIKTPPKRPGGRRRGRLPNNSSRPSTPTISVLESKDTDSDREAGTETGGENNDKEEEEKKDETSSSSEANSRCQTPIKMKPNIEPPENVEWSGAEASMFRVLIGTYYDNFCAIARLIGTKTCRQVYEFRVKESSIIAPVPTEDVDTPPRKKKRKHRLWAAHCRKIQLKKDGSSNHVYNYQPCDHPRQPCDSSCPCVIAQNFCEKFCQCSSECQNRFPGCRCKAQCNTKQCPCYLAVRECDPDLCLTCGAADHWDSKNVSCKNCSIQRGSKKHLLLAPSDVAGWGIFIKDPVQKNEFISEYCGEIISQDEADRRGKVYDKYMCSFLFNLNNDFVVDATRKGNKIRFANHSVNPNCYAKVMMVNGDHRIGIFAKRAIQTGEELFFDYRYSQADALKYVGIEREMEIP

Molecular target: TET2 (mouse (endogenous in CD19+ B cells)) (UniProt Q4JK59)
Experiment: co-IP; extracts of CD19+ B cells from control (Hdac7+/-) and HDAC7-deficient (Hdac7fl/-) mice; lysis buffer 50 mM Tris-HCl pH 7.5, 1 mM EDTA, 150 mM NaCl, 1% Triton-X-100, with Benzonase; precipitated overnight at 4°C with anti-TET2 (ab124297), rabbit IgG as negative control; blotted

- binding: binds
Substance: EZH2 (from UniProt Q61188 1-746)
